# Assay results from article PMC7819943, “Rice protein-binding microarrays: a tool to detect cis-acting elements near promoter regions in rice”.
# Amino acid sequences for entries named in this document (tags omitted).
# UniProt Q0JBA9, entry or part of it: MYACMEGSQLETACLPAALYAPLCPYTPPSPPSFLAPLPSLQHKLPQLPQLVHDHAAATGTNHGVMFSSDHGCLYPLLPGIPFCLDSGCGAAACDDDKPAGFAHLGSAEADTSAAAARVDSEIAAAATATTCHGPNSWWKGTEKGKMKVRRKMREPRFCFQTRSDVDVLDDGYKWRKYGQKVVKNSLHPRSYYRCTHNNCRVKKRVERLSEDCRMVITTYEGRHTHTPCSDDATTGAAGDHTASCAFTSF
# The other results are listed elsewhere or left out.
# Target: OsWRKY34 (Oryza sativa, UniProt Q0JBA9 1-250)
# Assay: protein-binding microarray (RPBM); PBS, 2% BSA, 51.3 ng/ul salmon testes DNA, 50 uM zinc acetate, 200 nM TF, 25 C, 1 h; high values mean tight binding
# Details: protein: recombinant; tags: N-terminal polyhistidine and DsRed monomer fusion (pET32a); label: CyDye5-dUTP incorporated in the synthesized complementary strand; 3' TTTTT single-stranded linker to array surface; dsDNA, one strand shown
# Summary of the method: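 For the binding signal, per-feature fluorescence intensity was read in arbitrary units on an Axon 4000B scanner. Before scanning, a 2% BSA-blocked custom Agilent array made double-stranded with Cy5-dUTP was washed after 1 h at 25 °C with 200 nM protein and 50 µM zinc acetate. The proteins were Ni–NTA-purified transcription factors with N-terminal polyhistidine and DsRed fusions, expressed in E. coli BL21-CodonPlus.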
row,Sequence,binding signal
1,GACTGTAAATTGTTGTTTCTTTTTTTTTTTCATATTTTTTCGGAGTCACCTAGTGCAG,12900 fluorescence intensity (a.u.)
2,CCGTTCACATCATTTACACAGTATCTCAACATATATCCATCGGAGTCACCTAGTGCAG,8400 fluorescence intensity (a.u.)
3,GCTGGTGCGGGTGCCCGTCGTGTGTGTGTTTCGTTGCTGCCGGAGTCACCTAGTGCAG,9850 fluorescence intensity (a.u.)
4,CACTAAAGTCAAACCCCATGTGTAACTGCTCACACTCTTTCGGAGTCACCTAGTGCAG,10300 fluorescence intensity (a.u.)
5,AATAGCAGCTCTCTCCAGGTTACTACTCCTGTTACTAACCCGGAGTCACCTAGTGCAG,8540 fluorescence intensity (a.u.)
6,GTGGCCGGAGCCATGGGAGGGAGGGGTGGCAGTTGTCGGACGGAGTCACCTAGTGCAG,13200 fluorescence intensity (a.u.)
7,TTTATTTTTCGTAAAATGTTCCCTTACATTATTCCCATGTCGGAGTCACCTAGTGCAG,9390 fluorescence intensity (a.u.)
8,TCTCCACTTAAATACTATGTTTCCCTATTTTTTCACTCTCCGGAGTCACCTAGTGCAG,8310 fluorescence intensity (a.u.)
9,CTTTTATTTTTGTGGTTAGTGTACCTTTTTTTGCTAATATCGGAGTCACCTAGTGCAG,12900 fluorescence intensity (a.u.)
10,CTTGTTTTAGAGTACTGAGAGTTAGCTGTTGACCATCTACCGGAGTCACCTAGTGCAG,9390 fluorescence intensity (a.u.)
11,TCCCCTCTCTGTTGTCATCGTCTTCCTTTCCTTTCCTTTCCGGAGTCACCTAGTGCAG,8230 fluorescence intensity (a.u.)
12,GAGTAGTTCGCTTTGGCAGTATGGCATTTGTACACGCTCACGGAGTCACCTAGTGCAG,8660 fluorescence intensity (a.u.)
13,TGGTTTGGTTTGGTTCTTTGTTGTTGCTGCCGCTGCCGCGCGGAGTCACCTAGTGCAG,31400 fluorescence intensity (a.u.)
14,TCTAAATCTTGTCGCATCACATTCAGATTCCATCTTTTTCCGGAGTCACCTAGTGCAG,9540 fluorescence intensity (a.u.)
15,TCTTTTCTTTGCCGCGTGCGTTCCTCTCCTCAGGTGGTGACGGAGTCACCTAGTGCAG,8980 fluorescence intensity (a.u.)
16,GCTTCCGCCGCCGCGTCTTCTCGCCCTCGACTCCGCTCTCCGGAGTCACCTAGTGCAG,14700 fluorescence intensity (a.u.)
17,ATTTTTGTCTTGAGTTAACACCGTCACGTTGCCTTCACGGCGGAGTCACCTAGTGCAG,9960 fluorescence intensity (a.u.)
18,ACGCTTTCCTGTGCTCTTTCTCGGTTATTAATATTTTCTCCGGAGTCACCTAGTGCAG,10100 fluorescence intensity (a.u.)
19,ACGCTCAATTATTCCGTGGCCACTAAGCTAAGCAACTCTGCGGAGTCACCTAGTGCAG,8630 fluorescence intensity (a.u.)
20,AATTGGCCCTACCATATTCTTTTCTCAACTGCATAATCCTCGGAGTCACCTAGTGCAG,11500 fluorescence intensity (a.u.)
21,GACAAACCCTGGTTTCCGTGTCCAACGTTTGACCGTCCGTCGGAGTCACCTAGTGCAG,9830 fluorescence intensity (a.u.)

row,Sequence,binding signal
1,TTTTGATCGTCCGTCTTATTTAAATTTTTTTTGAAAAAATCGGAGTCACCTAGTGCAG,8170 fluorescence intensity (a.u.)
2,TTCCAATCACATTCTTAGTCAACACCATCCATGCTGTCGACGGAGTCACCTAGTGCAG,8570 fluorescence intensity (a.u.)
3,TTCTAATTTCTATTGCTGTTTCTTAGACATGATATTTTTACGGAGTCACCTAGTGCAG,8710 fluorescence intensity (a.u.)
4,TTTAAATTGTTACTATCTCGCAGTTCAGTAAAATTTTCATCGGAGTCACCTAGTGCAG,8420 fluorescence intensity (a.u.)
5,TAGTAGTTTGATCAATTTGCATCTCAGTGGTACCAAGTTCCGGAGTCACCTAGTGCAG,8340 fluorescence intensity (a.u.)
6,GGTTTGCCGTCGTCGGCGTCGGCCGCTGCCTCGCGCGCGCCGGAGTCACCTAGTGCAG,9230 fluorescence intensity (a.u.)
7,TTCGTTCCATCTCACCTCATCCTATTCTTGTAACTAAACACGGAGTCACCTAGTGCAG,9060 fluorescence intensity (a.u.)
8,GGCCTACCTGTTGCAGATTCAAGTGTCGTTGCGCTTATAACGGAGTCACCTAGTGCAG,8860 fluorescence intensity (a.u.)
9,CGCGCCGCCGCCGATCGCCTCTGCTCTCAACGCACCCAAGCGGAGTCACCTAGTGCAG,8120 fluorescence intensity (a.u.)
10,CCTCCGCCACACCCGCGCCACCCGCTCCCTTCGCCGGCTCCGGAGTCACCTAGTGCAG,10500 fluorescence intensity (a.u.)
11,GAGCGTTATCTCGCGTGGCCAGCTCGGATTTGCGCATGCGCGGAGTCACCTAGTGCAG,8300 fluorescence intensity (a.u.)
12,CCGCTTCTTCTTCCTTGCTGCTGTTCCTAAGGCACTTCTCCGGAGTCACCTAGTGCAG,8880 fluorescence intensity (a.u.)
13,CACGCGCCATGCATGCACCACTGCCACCACTATCAACCACCGGAGTCACCTAGTGCAG,8180 fluorescence intensity (a.u.)
14,TTCTTGTTTTCGTGGATCATCATCAACCTCAATAGAAACGCGGAGTCACCTAGTGCAG,8410 fluorescence intensity (a.u.)
15,CCGAGGCAATTTTTCCGACCTATTGTGTTGCTTTCCTCTCCGGAGTCACCTAGTGCAG,8360 fluorescence intensity (a.u.)
16,CTCCTGCTCTAGTTCTTGTTTGATTAATTTGGTCAAATCTCGGAGTCACCTAGTGCAG,9140 fluorescence intensity (a.u.)
17,TTGTGGTGATGAGAAGACTATGTCATTTGTTATTCTTCTACGGAGTCACCTAGTGCAG,9510 fluorescence intensity (a.u.)
18,CGCCGCTGTGCCCCTGTGCTCACCTCTCGTCGCGGTCGCCCGGAGTCACCTAGTGCAG,8350 fluorescence intensity (a.u.)
19,GTAGTATTCTCGTTTTATTTTTCTTGTGGGTATAGCATTCCGGAGTCACCTAGTGCAG,13700 fluorescence intensity (a.u.)
20,CTCCTCCACCTCCTCTGCTTCTTAATTCAATCCTATCTCACGGAGTCACCTAGTGCAG,8040 fluorescence intensity (a.u.)
21,CTTTTTATTACCGGTGTTTCGCTTTGGACCACCCTTCAACCGGAGTCACCTAGTGCAG,9170 fluorescence intensity (a.u.)

# Some values from the entries so far.
# TTCCAATCACATTCTTAGTCAACACCATCCATGCTGTCGACGGAGTCACCTAGTGCAG | binding signal: 8570 fluorescence intensity (a.u.)
# TTCGTTCCATCTCACCTCATCCTATTCTTGTAACTAAACACGGAGTCACCTAGTGCAG | binding signal: 9060 fluorescence intensity (a.u.)
# TTTAAATTGTTACTATCTCGCAGTTCAGTAAAATTTTCATCGGAGTCACCTAGTGCAG | binding signal: 8420 fluorescence intensity (a.u.)
# CTCCTCCACCTCCTCTGCTTCTTAATTCAATCCTATCTCACGGAGTCACCTAGTGCAG | binding signal: 8040 fluorescence intensity (a.u.)
# CGCGCCGCCGCCGATCGCCTCTGCTCTCAACGCACCCAAGCGGAGTCACCTAGTGCAG | binding signal: 8120 fluorescence intensity (a.u.)

# Remaining list, next part:

row,Sequence,binding signal
1,GTCGTCCGTCCTCGCTCCATTCGCTGTTGGGGCGCGCCAACGGAGTCACCTAGTGCAG,9470 fluorescence intensity (a.u.)
2,GTGGGTATGGGTAAGATTCGGTGAGGGCTGGGCTACCATGCGGAGTCACCTAGTGCAG,8200 fluorescence intensity (a.u.)
3,GCTCCTATCTCGATGGCTTCTGGCTTCTGCCCTACTTTTCCGGAGTCACCTAGTGCAG,11000 fluorescence intensity (a.u.)
4,TCAAAGGTTGGTTTGATTTGTTGCTATTTGTTGGTTTGATCGGAGTCACCTAGTGCAG,8630 fluorescence intensity (a.u.)
5,GGCATCCACGTCCGATTCATCCTCCCGCCAACTTGGAACCCGGAGTCACCTAGTGCAG,11100 fluorescence intensity (a.u.)
6,GAATCTTCTTTTACCCTCTTTTGCAAAGTCGATTTTTTCTCGGAGTCACCTAGTGCAG,8070 fluorescence intensity (a.u.)
7,ATATAATTCCCGTCCGTTTCCGTATTGTTTTCACCCCTATCGGAGTCACCTAGTGCAG,8750 fluorescence intensity (a.u.)
8,ACACAAGTGCTCAGTACTAGCCTTGAATTGTGCTCTTTCTCGGAGTCACCTAGTGCAG,9060 fluorescence intensity (a.u.)
9,TTACCTCAAACTCGCGTATACCCTGGCACCAATGATTCTCCGGAGTCACCTAGTGCAG,9760 fluorescence intensity (a.u.)
10,GATTAAAATAGACTTCACCTGTTGCAACGCACGGGCATTTCGGAGTCACCTAGTGCAG,8580 fluorescence intensity (a.u.)
11,CCTCCGCCTCGCTTCTTCATCTCCTCTCCTTTAATTCGGCCGGAGTCACCTAGTGCAG,8580 fluorescence intensity (a.u.)
12,GGCCCTTTATGTGGGTGTGCGTCGCGATCCTCTGCTTCTTCGGAGTCACCTAGTGCAG,8570 fluorescence intensity (a.u.)
13,TTTTCCTCTTCTTCCTCATGCCGCTCTCTTGCCGTTACTCCGGAGTCACCTAGTGCAG,10600 fluorescence intensity (a.u.)
14,ATTTTTACTTATACCACCTCATGATTTTCTTCCTAAATTTCGGAGTCACCTAGTGCAG,8710 fluorescence intensity (a.u.)
15,CCTCCTCGTCCCCGTTATCAGCCTCCTGGATATCACTCGTCGGAGTCACCTAGTGCAG,8660 fluorescence intensity (a.u.)
16,TGTTGTTCTTCGTGTTGATTTCTTCCTCTGCGAATTGAATCGGAGTCACCTAGTGCAG,10100 fluorescence intensity (a.u.)
17,TTGGAATAGGTTTTATCATTAGTTTATGTTTAATACTTCTCGGAGTCACCTAGTGCAG,8390 fluorescence intensity (a.u.)
18,TCGTGGTTTTTATGTTGGTGTGTCCCTCAATCAATTTGGTCGGAGTCACCTAGTGCAG,8460 fluorescence intensity (a.u.)
19,TTCTATATGTCTGTGCATAGCATTCTTGCAATTCAACTATCGGAGTCACCTAGTGCAG,8080 fluorescence intensity (a.u.)
20,ACAACAACAGACCGCAATTCCCGGGCCACCCCAGTCAACGCGGAGTCACCTAGTGCAG,9620 fluorescence intensity (a.u.)
21,GGATGGGAAATTTCGGCCTCGCTTTCCTTGTTTGTTCGGCCGGAGTCACCTAGTGCAG,8480 fluorescence intensity (a.u.)

row,Sequence,binding signal
1,GCCTCTCTCTAGACATCTCTCTCTTGTGTGTGGGTGGTTTCGGAGTCACCTAGTGCAG,10100 fluorescence intensity (a.u.)
2,ATTGTACATTCCGTTTCCTGTAGTATGATTAGGCTTTCTTCGGAGTCACCTAGTGCAG,9320 fluorescence intensity (a.u.)
3,TCCCCATATTCCCTTCGCCACCGTCACTCCACGAGCGCGACGGAGTCACCTAGTGCAG,9460 fluorescence intensity (a.u.)
4,TCTCTCTCTCTCTCCAATCTCGAAGAGTTCCAGAAGCTTCCGGAGTCACCTAGTGCAG,8560 fluorescence intensity (a.u.)
5,AGGTTTCAGATTTGTTTGTCTGTTCCATTCCAAATTTCCACGGAGTCACCTAGTGCAG,8100 fluorescence intensity (a.u.)
6,CTCAAAAGACCTTATTGTTCGTACTTCTCATTCTTAATTTCGGAGTCACCTAGTGCAG,8100 fluorescence intensity (a.u.)
7,TGGCTGGCGTGTTCGCTTCCGGTGGTATCCACATCGCCCCCGGAGTCACCTAGTGCAG,9330 fluorescence intensity (a.u.)
8,GCAATATTGTGCTCTCTGTCCTGGAATCTCTCGGCCATCACGGAGTCACCTAGTGCAG,8950 fluorescence intensity (a.u.)
9,ATGATGATATTAAACTACTTGACCGACACAGCGTTCATCCCGGAGTCACCTAGTGCAG,9950 fluorescence intensity (a.u.)
10,CATGAGTTCATAACCTCACCTCACGTTTTTATTTAATTTTCGGAGTCACCTAGTGCAG,8880 fluorescence intensity (a.u.)
11,TCTATGTTTGTTTTTTATGGGGCGGAGGGAGTAAGGCTAACGGAGTCACCTAGTGCAG,13900 fluorescence intensity (a.u.)
12,ATATGAGTCTGTATTGTTGGATTTGATTTGCTTCTTTAACCGGAGTCACCTAGTGCAG,8340 fluorescence intensity (a.u.)
13,AATATTTATTTTTATATATGTCCGTTTTGTTTTTTAATCTCGGAGTCACCTAGTGCAG,11400 fluorescence intensity (a.u.)
14,CGGTTTCGAGGTTTTTGTTGTAGACGCAGTCCATGGACCGCGGAGTCACCTAGTGCAG,8170 fluorescence intensity (a.u.)
15,CTCGATTCTTCTGCAGCTGGGCGGGAGGGGAGGCGTGGCGCGGAGTCACCTAGTGCAG,18300 fluorescence intensity (a.u.)
16,CCACCAACCACTAACGATTGCTCTGCACTGTATTTGTATGCGGAGTCACCTAGTGCAG,9240 fluorescence intensity (a.u.)
17,TTTTCAGTATTTTTTTTGGAGTTAATTGAGGGGCGGTAATCGGAGTCACCTAGTGCAG,12100 fluorescence intensity (a.u.)
18,TTCTTTTTTAGACTAGCCATGTACATAATTCTATCGTCCTCGGAGTCACCTAGTGCAG,8210 fluorescence intensity (a.u.)
19,CGGCGGCTGTATCGTGATATGTGTTCTTGGAAAAAAAAGACGGAGTCACCTAGTGCAG,8860 fluorescence intensity (a.u.)
20,CCCCACGGCCCACGCTAGCCCGACCATGCGCCGACCTCACCGGAGTCACCTAGTGCAG,8870 fluorescence intensity (a.u.)
21,GCCCACCACCGCCATTCGCCACCACCTCGCCTCCGATTCACGGAGTCACCTAGTGCAG,12600 fluorescence intensity (a.u.)
